Our source for the binding values is paper PMC4825978.

This experiment deals with T1, his-Hth (Homothorax) (Drosophila) (UniProt O46339).
T1 sequence: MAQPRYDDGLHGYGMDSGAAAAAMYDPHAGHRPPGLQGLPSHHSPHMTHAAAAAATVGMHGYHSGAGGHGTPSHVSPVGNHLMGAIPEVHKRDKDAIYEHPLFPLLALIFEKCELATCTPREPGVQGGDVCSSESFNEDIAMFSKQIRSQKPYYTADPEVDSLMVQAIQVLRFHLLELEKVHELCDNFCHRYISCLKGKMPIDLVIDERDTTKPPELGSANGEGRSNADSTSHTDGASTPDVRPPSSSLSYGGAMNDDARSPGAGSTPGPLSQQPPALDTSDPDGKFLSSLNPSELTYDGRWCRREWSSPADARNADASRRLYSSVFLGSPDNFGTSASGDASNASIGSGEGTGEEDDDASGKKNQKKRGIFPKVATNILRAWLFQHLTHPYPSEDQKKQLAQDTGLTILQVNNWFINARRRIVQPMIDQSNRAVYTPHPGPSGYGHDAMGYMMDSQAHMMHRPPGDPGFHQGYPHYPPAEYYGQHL
Description: co-purification; heterodimers purified from BL21 cells as previously described, one subunit His-tagged; confirmed by SDS-PAGE and Coomassie blue staining.

No constants are given. Whether binding was seen depends on the method and setting. Some binding calls cover weakened binding; strength is not graded here. Where a sequence is shown, tags or fusion partners need not be part of it.

B1: untagged Exd (Extradenticle) (protein, UniProt P40427 1-376)
chain: MEDPNRMLAHTGGMMAPQGYGLSGQDDGQNAGSENEVRKQKDIGEILQQIMSISEQSLDEAQARKHTLNCHRMKPALFSVLCEIKEKTVLSIRNTQEEEPPDPQLMRLDNMLIAEGVAGPEKGGGGAAAASAAAASQGGSLSIDGADNAIEHSDYRAKLAQIRQIYHQELEKYEQACNEFTTHVMNLLREQSRTRPITPKEIERMVQIIHKKFSSIQMQLKQSTCEAVMILRSRFLDARRKRRNFSKQASEILNEYFYSHLSNPYPSEEAKEELARKCGITVSQVSNWFGNKRIRYKKNIGKAQEEANLYAAKKAAGASPYSMAGPPSGTTTPMMSPAPPQDSMGYPMGSGGYDQQQPYDNSMGGYDPNLHQDLSP
Turning to B1, the binding result is given as “binds”.
